In all, about 31,000 sequences went through this assay and about 1,400 (4.5%) were called active.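 The calls were made as follows: active = median seed-adjusted z-score above 1 or below -1; inactive = the rest.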 The list shows a part of the results.

This is an account of results in PubChem BioAssay AID1347426 (Functional Genomics Laboratory (NCATS/FGL), 2020).

This assay is described as follows: Novel Modifiers of Survival Motor Neuron (SMN) Protein: Gene Identification via Genome-wide siRNA Screen.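 Also: luminescence tracks full-length SMN protein made from the SMN2 reporter.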 The note with it: HEK293T SMN2-luciferase reporter, siRNA knockdown, 72 h; actives lie on both sides. Summed up:
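HEK293T cells stably expressing an SMN2 splicing/cDNA-luciferase reporter were reverse-transfected with a druggable-genome siRNA library and read by luminescence at 72 hours; hits defined by MAD score above 1.0 or below -1.0.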
Background: Reporter assays use an easily measured gene product as a stand-in for the process of interest.
For the sequence GGCGAGAGCUACAAACUGATT against GUCA1B, the median seed-adjusted z-score is inactive: 0.

Regarding GGUCUCUUCUGGUCUCUGATT against BAAT, the median seed-adjusted z-score was inactive: 0.641.

In the case of GAACGAAUUGACAAACAAATT against IL6, the median seed-adjusted z-score is inactive: -0.436.

With GAUAUUGACUGGAUAGACATT against MYO10, the median seed-adjusted z-score was inactive: 0.8.

With GCUCACAAGUGGUUACCUUTT against COL21A1, the median seed-adjusted z-score was inactive: 0.296.

On to GGACUUCUUUCUAAUGUAATT against SMAD9, for which the median seed-adjusted z-score was inactive: -0.492.

In the case of CCUCCACAAUAAAGACUUATT against PDE7B, the median seed-adjusted z-score is inactive: 0.0616.

Turning to CGUGGAAGGUGAGUAAUAATT against ZBTB40, the median seed-adjusted z-score is inactive: 0.187.

With GAGUGUAUGACGAACGAAATT against SMC3, the median seed-adjusted z-score was inactive: 0.507.

Regarding GGACUUGCUCAAUUCAAGATT against MGAT5, the median seed-adjusted z-score is inactive: 0.16.

As to GGAACAACGGUGGAGAUUUTT against ITGB5, the median seed-adjusted z-score is inactive: -0.00882.

With GAACUUCCGUCGUAGAUCATT against ZNF234, the median seed-adjusted z-score was inactive: 0.0667.

GGCCUAGAACUCUAUCAAATT against USP28: the median seed-adjusted z-score is inactive: 0.275.

GGAAGUAGCUAGUCAACUATT against RASGRP3: the median seed-adjusted z-score was inactive: 0.0202.

On to GAAACUCAGUUUAUGAGCATT against SPON1, for which the median seed-adjusted z-score is inactive: 0.248.

CGAGCAGAAUGUCUCCAGATT against SFRS17A: the median seed-adjusted z-score was inactive: -0.389.

As to CGCUGCGUCUAAAAUCAAATT against LILRA3, the median seed-adjusted z-score is inactive: -0.548.

For GUGUAUCUCCCGAACAUAATT against RHOBTB1, the median seed-adjusted z-score was inactive: -0.605.

Consider GGAGUGGUUUAAUAAUUAUTT against GINS1, for which the median seed-adjusted z-score is inactive: -0.224.

For the sequence GAGCAUGGGUCAAAGCGAATT against TRPM6, the median seed-adjusted z-score is inactive: -0.0375.

For UGCACAAUUUUGUACGGAATT against ARAF, the median seed-adjusted z-score is inactive: 0.535.

With CUGCAUCAGUAAAUGCUAATT against HRB, the median seed-adjusted z-score was inactive: 0.921.

As to GCCUGUGAAUGUACAGAAATT against VEGFC, the median seed-adjusted z-score is inactive: -0.41.

In the case of CGCAUUUUCUCCGCAAAAATT against HSFX1, the median seed-adjusted z-score is inactive: 0.0575.

CGAGUACAUUUUCUUCCGATT against KCTD8: the median seed-adjusted z-score was inactive: 0.0212.

Turning to GGCCUAACAGUAUUCCUGATT against CRB2, the median seed-adjusted z-score was inactive: 0.

For GCACGAAUUUCAGCACCAATT against HOXD1, the median seed-adjusted z-score was inactive: 0.144.

As for GGUCAUCACUUGGACAACATT against CLASP2, the median seed-adjusted z-score was inactive: 0.157.

For the sequence AGCCUGGAGUCGAAACUGATT against GPR56, the median seed-adjusted z-score is inactive: -0.109.

As for UAAGCUUCAUGAAUACAGATT against S100A11, the median seed-adjusted z-score is inactive: 0.702.

In the case of CCCAAAGACUAAAGAUUAUTT against ATP6V1E1, the median seed-adjusted z-score is inactive: -0.312.

As to CGCUGGUCAUCGGACAAUUTT against PSMC4, the median seed-adjusted z-score is inactive: -0.361.

In the case of GCUUCGUCAUGGUACCCUUTT against EDNRA, the median seed-adjusted z-score was inactive: 0.133.

Turning to GGUUAUACGAGGGACAAGUTT against PDXK, the median seed-adjusted z-score was inactive: -0.247.

As to GGAAAAGGAACGGAAUAAATT against MLN, the median seed-adjusted z-score was inactive: -0.422.

CGUUGGAUUUUAAGGAAUUTT against KCTD6: the median seed-adjusted z-score is inactive: 0.124.

GACUGAAAGUAGUCAAGCATT against SP100: the median seed-adjusted z-score was inactive: -0.235.

Consider GUAUAGUCCUAGUAGCUAUTT against MYO5A, for which the median seed-adjusted z-score was inactive: 0.00798.

Take GGGUCAUACGAAUACCGAUTT against VIPR2: the median seed-adjusted z-score is inactive: 0.706.

For GGACUACGGAGUUCGAGAATT against MGC29506, the median seed-adjusted z-score was inactive: 0.

Consider GGUCAUUAUGAUAACUUAATT against ZNF443, for which the median seed-adjusted z-score is inactive: 0.0544.

For CACUCUAUCUACUUGAUAATT against FUCA1, the median seed-adjusted z-score is inactive: -0.94.

With GAAUUCAACUAUCGAGUAUTT against CD86, the median seed-adjusted z-score was inactive: 0.

Take GGGCAGCUGUGGAUCGAAUTT against COQ7: the median seed-adjusted z-score was inactive: 0.159.

CGGCUCAACUUGACGAUAATT against SNX13: the median seed-adjusted z-score is inactive: 0.253.

As to GAACAAGCAGUACUAAUGATT against TCF12, the median seed-adjusted z-score was inactive: -0.16.

As for AAAGGUGCCUGUUACCGAUTT against DUSP21, the median seed-adjusted z-score is inactive: -0.0724.

Take GACAUUAUUUCAAUAUGGATT against EIF4E2: the median seed-adjusted z-score was inactive: 0.0495.

With CUAUCACGGUCACUGAUUUTT against PCDHB6, the median seed-adjusted z-score is inactive: 0.

On to CCAACUCACUACUACAGCATT against ENPP2, for which the median seed-adjusted z-score is inactive: -0.305.

As for GUUUUACCGAGAGCAUGAATT against NME6, the median seed-adjusted z-score is inactive: -0.304.

Turning to CCCACUUUAUUAUGACCAATT against RXFP2, the median seed-adjusted z-score was inactive: 0.511.

Turning to GACGUAAACGUGUUCAAUATT against ANXA1, the median seed-adjusted z-score was inactive: -0.114.

In the case of AGGAGAAUUUUGACGUGAATT against APOD, the median seed-adjusted z-score is inactive: -0.115.

Regarding CCAUUCUGUUGUGAAGUAATT against INSL4, the median seed-adjusted z-score was inactive: 0.399.

As for GCUCAUAAAUGAGAAGCUATT against PCDHB16, the median seed-adjusted z-score was inactive: -0.523.

With GAAUUCACCAUUCAAGUAATT against SCYL3, the median seed-adjusted z-score is inactive: 0.665.

Turning to GAAUCUGAGUGUUGCGUUATT against SLC17A5, the median seed-adjusted z-score was inactive: -0.354.

Turning to CACCCGCGCUCAUGAGAAATT against KLC2, the median seed-adjusted z-score was inactive: 0.0706.

Take CCACCGGAUUUGAGAGAUUTT against USP25: the median seed-adjusted z-score was inactive: 0.0461.

Turning to GGAUAAAGAUAUUACUCUUTT against KIF5B, the median seed-adjusted z-score was inactive: 0.162.

As to GACUGGGUGUAAAACCGAUTT against ANGEL1, the median seed-adjusted z-score was inactive: -0.332.

Take CGGCUGCUACAAUGCCUUUTT against RNF31: the median seed-adjusted z-score is inactive: -0.687.

Take GGCUUGUGCAGACAUAAGATT against OMA1: the median seed-adjusted z-score is inactive: 0.

On to GCAGAGGAUUCUUCAAGCATT against TCOF1, for which the median seed-adjusted z-score is inactive: 0.819.

GGAUCAAGACGUGAACGAUTT against CPSF6: the median seed-adjusted z-score was active: -2.38.

As to CACCUCCAAUCAUAGGAUATT against NPAS2, the median seed-adjusted z-score is inactive: 0.222.

Turning to GGCGAUUACUGCAAUCUUUTT against MFN1, the median seed-adjusted z-score was inactive: 0.21.

Regarding GCAUAGCUAUUCCUGUUGATT against TSC22D2, the median seed-adjusted z-score is inactive: 0.

For the sequence GGCCGUGCAGUUAAAGAAATT against TTLL6, the median seed-adjusted z-score is inactive: -0.661.

With CAGGAAUCAUUAGGCAAUATT against PJA2, the median seed-adjusted z-score is inactive: 0.

Regarding CAAAUUACCUUAGACUUCATT against ZNF101, the median seed-adjusted z-score was inactive: 0.336.

Regarding GCCUAGCAUUGCAAAACGATT against PPP2R5A, the median seed-adjusted z-score was inactive: 0.37.

With GAAGGAUGGGUGGACGUAATT against NALCN, the median seed-adjusted z-score is inactive: -0.266.

In the case of GCCUGGUUCCGCUACUUCATT against ALDH3B1, the median seed-adjusted z-score is inactive: 0.148.

For the sequence GAGUAUUCUGAGUACAUGATT against ZFP42, the median seed-adjusted z-score is inactive: -0.537.

Consider CACUCUUUAUGAGUCGGAATT against SEC23IP, for which the median seed-adjusted z-score was inactive: -0.0226.

As for CACUGGAGACUUUCGCUUUTT against ZNF813, the median seed-adjusted z-score is inactive: 0.127.

Consider GCAACCUCAUUAUCCGCUATT against ITIH4, for which the median seed-adjusted z-score was inactive: 0.64.

On to GGCCUGACAUGCUAAUAGATT against XPO5, for which the median seed-adjusted z-score was inactive: -0.031.

As to CGUUCGACCUGAUCGCAAATT against ODZ2, the median seed-adjusted z-score is inactive: -0.0233.

In the case of CAACAUACUUGAAUCAAGATT against CPOX, the median seed-adjusted z-score was inactive: -0.135.

For the sequence CUGAAUCUCUCUGACCAUUTT against SCRT2, the median seed-adjusted z-score was inactive: 0.404.

On to GGCUCAAGUUAAAAGUGGATT against TGFB1, for which the median seed-adjusted z-score was inactive: 0.

Turning to GGCUAGAGCUUGAUAAUAATT against RNF2, the median seed-adjusted z-score was inactive: 0.354.

With GGGUAUGAAUAUCUCUAUATT against IL23R, the median seed-adjusted z-score is inactive: 0.512.

As for GGAUCCUUACUUCUUGUCATT against COQ2, the median seed-adjusted z-score was inactive: -0.0121.

With GAAAGAGAGAAGUACCGAATT against SENP2, the median seed-adjusted z-score was inactive: 0.

For GCCCUUUAUUCAACGGGAATT against LIPH, the median seed-adjusted z-score was inactive: 0.0437.

Turning to AGACCGUGAUGGACAUCGATT against DECR2, the median seed-adjusted z-score is inactive: 0.

On to GGGUUCCAGUAACCAGUGATT against RPP21, for which the median seed-adjusted z-score was active: -1.09.

As to GGAGGAAAAUUUGACAUUATT against P2RX7, the median seed-adjusted z-score is inactive: -0.527.

For the sequence GGAUAAUGAAUUCAAGACATT against CYBB, the median seed-adjusted z-score was inactive: 0.0487.

On to GCGUGGAAAUUGUACCCGUTT against MBNL3, for which the median seed-adjusted z-score was inactive: -0.189.

GUGCAUAAGUGUUAGGGAATT against SLC17A2: the median seed-adjusted z-score is inactive: 0.141.

On to GGAUCGGUAUGUAGCAAUATT against HTR2C, for which the median seed-adjusted z-score was inactive: -0.115.

For GCUCUUUAAGGAUGGGAAATT against PTGS1, the median seed-adjusted z-score was inactive: 0.0458.

As to GCACAGUAACGAUGACGAUTT against EIF4B, the median seed-adjusted z-score is inactive: -0.374.

GAAGCUUCCAGGAUAAAAATT against TNFRSF10D: the median seed-adjusted z-score was inactive: 0.0234.

For the sequence CGUGGGCUCCAUUGAGACATT against NKIRAS2, the median seed-adjusted z-score is inactive: 0.111.

In the case of CUAUGAGUCAUAUAGGUAUTT against IFT88, the median seed-adjusted z-score was inactive: 0.189.

Consider GAGGCGCUCUCUGAGGAAATT against GUK1, for which the median seed-adjusted z-score is inactive: -0.339.

Take GCGAUUCUCUGUGACCACUTT against CYP2B6: the median seed-adjusted z-score is inactive: 0.454.

As for GAACGGUCAAGAAAGAGUATT against DNAJB6, the median seed-adjusted z-score is inactive: -0.251.

Regarding AGGUACCGAUUUCUGCUAATT against HOXB8, the median seed-adjusted z-score is inactive: 0.133.

For GACUUGACCCUGGAUGACATT against SERTAD2, the median seed-adjusted z-score is inactive: 0.43.

As for GGAUAAUACAGUUCGAUUATT against TAF5, the median seed-adjusted z-score is inactive: -0.192.

With CCAUCUCAGGAGUUAGCUATT against ZNF281, the median seed-adjusted z-score was active: 1.19.
